The nature of this test: qHTS Assay to Find Inhibitors of Chronic Active B-Cell Receptor Signaling. To be noted: ABC-DLBCL IkBa-CBG/CBR reporter, luminescence ratio (green luciferase fused to IkBa over red control in TMD8 lymphoma cells), 4 h. Summed up: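 Compounds up to 46 uM were incubated four hours with TMD8 cells whose green CBG68 luciferase is fused to IkappaBalpha; red CBR luminescence normalised the signal, and concentration-effect curves were fitted to fusion, red and ratio data.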

The mark [1] stands for this setting: measured here: CBR red luminescence, cell number.
[2] abbreviates: measured here: IkBa-CBG green luminescence.

The other results are listed elsewhere or left out. Further columns of the screen follow, without active or inactive calls. Compounds called inactive in the main read-out are mostly missing here. Words in brackets tell the shape of the fitted curve; partial curves, single points and poor fits give uncertain potencies.

Turning to `O=c1cc(NC2CCCCC2)c2ccccc2o1`, the AC50 under setting [1] was 32.6 µM [falling, single point].
Same read-out and setting: for `Cc1cc([N+](=O)[O-])ccc1NC(=S)NC(=O)Cc1ccccc1` the value was 6.51 µM [rising, single point]; for `FC(F)(F)c1ccc(-c2nc(=S)[nH][nH]2)cc1`, 11.2 µM [rising, partial curve, poor fit].
For `COc1ccc(S(=O)(=O)NCc2ccc3c(c2)OCO3)cc1C`, the AC50 under setting [1] was 32.6 µM [rising, partial curve, poor fit].
In the case of `COc1cccc(NC(=O)C(=O)NCCC2CCCCN2S(=O)(=O)c2cccs2)c1` (stereo not drawn), the AC50 under setting [1] was 1.3 µM [falling, full curve].
Take `Cc1cc(NC(=O)CSc2nc3c(C)cccc3cc2C#N)no1`: under setting [1], the AC50 is 11.2 µM [falling, single point].
Still for that read-out and setting: to `COC(=O)c1ccc(-n2c(/C=C\c3cccc(Br)c3)nc3ccccc3c2=O)cc1` belongs 3.98 µM [rising, partial curve, poor fit].
The same measure, in the same setting: to `C=CC(=O)Nc1sc2c(c1C(N)=O)CCCC2` belongs 18.4 µM [falling, partial curve].
As for `O=C(Nc1nccs1)c1nc[nH]c1C(=O)NCc1ccccc1`, the AC50 under setting [2] is 0.146 µM [rising, full curve, poor fit].
Regarding `COc1cc(NCCCC(C)N)c2ncccc2c1` (stereo not drawn), the AC50 under setting [1] was 4.47 µM [falling, full curve].
`O=C(/C=C/c1ccccc1[N+](=O)[O-])N1CCOCC1`: the AC50 under setting [1] was 0.631 µM [falling, full curve, poor fit].
Same read-out and setting: to `CN(C)CC(O)COC(c1ccc(Cl)cc1)c1ccc(Cl)cc1` (stereo not drawn) belongs 10 µM [falling, partial curve]; to `Cc1ccc(C)c(CN2CCCN(Cc3cc(C)ccc3C)S2(=O)=O)c1`, 8.91 µM [rising, single point]; to `O=C(N/N=C/c1ccco1)c1ccc(C(=O)N/N=C/c2ccco2)o1`, 17.8 µM [falling, single point].
Regarding `CC(Sc1ccccc1)C(=O)NCCc1ccccc1` (stereo not drawn), the AC50 under setting [1] was 22.4 µM [rising, single point].
For `O=C1C(Nc2ccccc2)=C(N2CCCCC2)C(=O)c2ccccc21`, the AC50 under setting [1] is 20 µM [falling, single point].
On the same count and under the same terms, to `CCCn1nc2cc(C(=O)NC3CCc4ccccc43)ccc2c1OCC` (stereo not drawn) belongs 25.9 µM [rising, single point]; to `CC1CCCCC1NC(=O)c1ccc(NS(=O)(=O)c2ccc3[nH]c(=O)[nH]c3c2)cc1` (stereo not drawn), 29.1 µM [rising, single point]; to `c1ccc(-c2cc(-c3ccccc3)[nH]n2)cc1`, 12.6 µM [falling, single point].
Same read-out and setting: to `CC(C)CSc1ncc(-c2cccc(C(F)(F)F)c2)cn1` belongs 7.94 µM [rising, partial curve, poor fit]; to `CCSc1nnc(SCC(=O)NC2CCCCC2)s1`, 14.6 µM [rising, partial curve, poor fit]; to `Cc1ccccc1Nc1nc(N)nc(CSc2nnnn2-c2ccccc2)n1`, 0.0206 µM [rising, full curve, poor fit].
The same measure, in the same setting: to `COC(=O)c1cccnc1NC(=S)NNC(=O)c1ccccc1` belongs 0.082 µM [rising, full curve]; to `COc1cc(OC)cc(C(=O)N[C@H](C(=O)OCC(=O)Nc2ccc(C(N)=O)cc2)C(C)C)c1`, 10.3 µM [rising, partial curve, poor fit]; to `N#C/C(=C\Nc1ccc2cn[nH]c2c1)c1nc(-c2ccc(Cl)cc2)cs1`, 20 µM [falling, partial curve, poor fit].
Take `Cc1nc2cc(NS(=O)(=O)c3c(C)c(C)cc(C)c3C)ccc2s1`: the AC50 was 1.64 µM [falling, partial curve, poor fit] under setting [1] and 29.1 µM [rising, partial curve, poor fit] under setting [2].
With `Cc1cccc2c1-c1sc(C(=O)Nc3nccs3)cc1CO2`, under setting [1], the AC50 is 0.0731 µM [falling, full curve].
The same measure, in the same setting: for `CC(C)Oc1ccc(C(CC(=O)O)NC(=O)Cc2ccccc2)cc1` (stereo not drawn) the value was 31.6 µM [rising, single point].
Regarding `Cc1[nH][nH]c(=O)c1[C@@H](c1ccccc1[N+](=O)[O-])C(C#N)C#N`, under setting [1], the AC50 is 0.562 µM [falling, full curve, poor fit].
Same read-out and setting: to `CCCc1nnc(SCC(=O)O)n1CC` belongs 17.8 µM [rising, single point].
Same read-out and setting: for `COc1ccc(/C=C/C(=O)NC2CCS(=O)(=O)C2)cc1` (stereo not drawn) the value was 3.26 µM [rising, single point].
On to `N#CC(C(=S)Nc1ccccc1)c1nc2ccccc2[nH]1` (stereo not drawn), for which, under setting [2], the AC50 is 2.24 µM [falling, partial curve, poor fit].
`COC(=O)c1cc(C)sc1NC(=O)CN1CCN(C(=O)c2ccco2)CC1`: under setting [1], the AC50 is 0.562 µM [falling, full curve, poor fit].
On to `Cc1noc(C)c1/C=N/Nc1ccc2ccccc2n1`, for which, under setting [1], the AC50 was 2.24 µM [falling, full curve].
As for `N#C/C(=C\c1cccc([N+](=O)[O-])c1)C(=O)NCC1CCCO1` (stereo not drawn), the AC50 under setting [1] was 14.1 µM [falling, partial curve].
Turning to `COc1ccc(CNC(=O)CN(c2ccccc2OC)S(=O)(=O)c2ccc(C)cc2)cc1`, the AC50 under setting [1] was 7.94 µM [falling, partial curve, poor fit].
For `O=C(COc1ccc(Cl)cc1[N+](=O)[O-])N1CCCCCC1`, the AC50 under setting [1] is 31.6 µM [rising, single point].
Turning to `Cc1cccc(-n2ccnc2SCC(=O)Nc2nccs2)c1`, the AC50 under setting [1] was 0.891 µM [rising, full curve, poor fit].
Regarding `COc1ccc(NC(=O)COc2ccc(/C=N/n3c(C)nnc3C)cc2OC)cc1`, the AC50 under setting [1] was 25.9 µM [falling, partial curve, poor fit].
With `CCOc1ccc(NC(=O)c2ccccc2OC)cc1`, the AC50 under setting [1] was 6.31 µM [rising, single point].
Still for that read-out and setting: to `Cc1cccc(/C(N)=N/OC(=O)c2cccnc2)c1` belongs 35.5 µM [falling, single point]; to `CCC/C(O)=C1\C(=O)CC(C)(C)CC1=Nc1ccc(OC)cc1`, 14.1 µM [falling, single point]; to `Cn1c(=O)c(C(=O)NNC(=O)c2ccccc2Br)c(O)c2ccccc21`, 0.398 µM [falling, full curve].
On the same count and under the same terms, to `CC1CCCCN1C(=O)/C=C/c1ccccc1[N+](=O)[O-]` (stereo not drawn) belongs 35.5 µM [falling, single point]; to `CCn1nnnc1NC(=O)c1cccc(OC)c1`, 22.4 µM [falling, partial curve].
`O=C(CSc1n[nH]c(=O)n1Cc1ccccc1)Nc1ccc(F)c(F)c1F`: the AC50 under setting [1] was 35.5 µM [falling, single point].
The same measure, in the same setting: to `COc1ccc(N2CC(C(=O)Nc3c(C(N)=O)oc4ccccc34)CC2=O)cc1` (stereo not drawn) belongs 6.51 µM [falling, partial curve].
On to `O=[N+]([O-])c1ccc(SCCc2ccccn2)cc1`, for which the half-maximal activity concentration (AC50) under setting [1] was 12.6 µM [rising, partial curve, poor fit].
On the same count and under the same terms, for `Clc1ccc(CO/N=C2\CCCc3nonc32)c(Cl)c1` the value was 29.1 µM [rising, single point]; for `COc1ccc(C(=O)Cn2c(=N)n(C)c3ccccc32)cc1`, 1.26 µM [rising, partial curve, poor fit].
On the same count and under the same terms, for `O=[N+]([O-])c1ccc(O)c(P(=O)(c2ccccc2)c2ccccc2)c1` the value was 35.5 µM [falling, single point].
`O=C(CSc1nc2ccccc2s1)N/N=C/c1cc([N+](=O)[O-])ccc1O`: the AC50 under setting [1] was 3.55 µM [falling, full curve].
Consider `COc1ccccc1C(=O)NC(=O)COC(=O)c1ccco1`, for which the AC50 under setting [1] was 29.1 µM [rising, single point].
As to `C=CCn1c(-c2ccc3[nH]c(C)c(C)c3c2)n[nH]c1=S`, under setting [1], the AC50 was 2.51 µM [rising, full curve, poor fit].
On the same count and under the same terms, for `COc1ccc(-c2nc(C)ncc2-c2csc(C)n2)c(O)c1` the value was 3.66 µM [falling, single point]; for `CCOC(=O)c1sc(NC(=O)c2cc3c(s2)CCC(C)C3)nc1C` (stereo not drawn), 0.103 µM [falling, full curve]; for `Cc1c(C(=O)Nc2ccc(N3CCOCC3)cc2)oc2ccccc12`, 8.91 µM [falling, partial curve, poor fit].
Take `COc1ccccc1N=CC1=C(O)CC(c2ccccc2)CC1=O` (stereo not drawn): under setting [1], the AC50 was 0.326 µM [falling, full curve].
Same read-out and setting: for `Cc1nc(N[C@@H](Cc2ccccc2)C(=O)O)c2oc3ccccc3c2n1` the value was 3.16 µM [falling, single point].
On the same count and under the same terms, to `Brc1ccc(CSc2ccc(-c3ccco3)nn2)cc1` belongs 6.31 µM [rising, partial curve, poor fit].
Take `Cc1onc(-c2c(F)cccc2Cl)c1C(=O)Nc1sc2c(c1C#N)CCC(C(C)(C)C)C2` (stereo not drawn): the AC50 by setting is: under setting [1], 2.31 µM [falling, full curve]; under setting [2], 20.6 µM [rising, partial curve, poor fit].
On to `O=c1[nH]c(/C=C/c2ccc(OC(F)F)cc2)nc2c1cnn2-c1ccccc1`, for which, under setting [1], the AC50 is 2.82 µM [rising, full curve, poor fit].
Same read-out and setting: for `O=C(CCSCc1ccccc1Cl)N1CCN(c2cccc(Cl)c2)CC1` the value was 10 µM [rising, partial curve, poor fit].
Still for that read-out and setting: for `C/C(Cn1nc([N+](=O)[O-])cc1C)=N\NC(=O)c1cccc(Br)c1` the value was 20 µM [falling, single point].
Same read-out and setting: for `O=C(NCCSc1ccccn1)c1ccc(Cl)cc1` the value was 11.2 µM [falling, single point]; for `N#CCc1ccc(NC(=O)CSc2nnc(C3CC3)n2C2CC2)cc1`, 1.64 µM [rising, partial curve, poor fit].

The values above are taken from PubChem BioAssay AID493014 (National Center for Advancing Translational Sciences (NCATS), 2011).
